Amino acid sequences for entries named in this document (tags omitted).
UniProt P35462, whole entry: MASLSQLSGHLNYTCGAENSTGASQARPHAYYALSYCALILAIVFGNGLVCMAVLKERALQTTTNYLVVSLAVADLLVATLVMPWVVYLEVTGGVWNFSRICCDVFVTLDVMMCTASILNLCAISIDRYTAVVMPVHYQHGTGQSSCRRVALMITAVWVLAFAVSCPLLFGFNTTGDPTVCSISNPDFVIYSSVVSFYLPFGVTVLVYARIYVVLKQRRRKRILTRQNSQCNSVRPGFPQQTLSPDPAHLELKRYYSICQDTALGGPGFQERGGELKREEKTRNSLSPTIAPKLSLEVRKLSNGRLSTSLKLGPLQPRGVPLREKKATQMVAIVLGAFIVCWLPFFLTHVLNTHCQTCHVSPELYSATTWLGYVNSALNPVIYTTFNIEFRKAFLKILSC

In ChEMBL document CHEMBL1148822, “Principal component analysis differentiates the receptor binding profiles of three antipsychotic drug candidates from current antipsychotic drugs” (J Med Chem, 2007):

Biological target: D(3) dopamine receptor (Homo sapiens, UniProt P35462)
Assay: biochemical

Ki: 251 nM
SMILES: OCCOCCN1CCN(C2=Nc3ccccc3Sc3ccccc32)CC1 [QUETIAPINE]
